# Experimental data taken from patent publication US5739273A, “Transmembrane polypeptide and methods of use” (Yale University, priority 1994, dated 1998).
# Not every detail of the peptide structures is certain; ends, links or a residue may be inferred. Residues, ends and D or L forms follow the SMILES beside them.
# What was measured:
# [1] = polarized Fourier Transform Infrared (FTIR) spectroscopy of ordered protein/phospholipid multilayers; type: physicochemical
# [2] = tryptophan fluorescence titration with phospholipid vesicles at various pH; type: physicochemical; details: fluorescence intensity vs pH, DMPC vesicles
smiles,measurement,setting,value
CC[C@H](C)[C@H](NC(=O)[C@@H]1CCCN1C(=O)[C@H](CC(N)=O)NC(=O)[C@H](CCC(N)=O)NC(=O)[C@H](CCC(=O)O)NC(=O)CNC(=O)CN)C(=O)N[C@@H](Cc1ccc(O)cc1)C(=O)N[C@@H](Cc1c[nH]c2ccccc12)C(=O)N[C@@H](C)C(=O)N[C@@H](CCCNC(=N)N)C(=O)N[C@@H](Cc1ccc(O)cc1)C(=O)N[C@@H](C)C(=O)N[C@@H](CC(=O)O)C(=O)N[C@@H](Cc1c[nH]c2ccccc12)C(=O)N[C@@H](CC(C)C)C(=O)N[C@@H](Cc1ccccc1)C(=O)N[C@H](C(=O)N[C@H](C(=O)N1CCC[C@H]1C(=O)N[C@@H](CC(C)C)C(=O)N[C@@H](CC(C)C)C(=O)N[C@@H](CC(C)C)C(=O)N[C@@H](CC(C)C)C(=O)N[C@@H](CC(=O)O)C(=O)N[C@@H](CC(C)C)C(=O)N[C@@H](C)C(=O)N[C@@H](CC(C)C)C(=O)N[C@@H](CC(C)C)C(=O)N[C@H](C(=O)N[C@@H](CC(=O)O)C(=O)N[C@@H](C)C(=O)N[C@@H](CC(=O)O)C(=O)N[C@@H](CCC(=O)O)C(=O)NCC(=O)N[C@H](C(=O)O)[C@@H](C)O)C(C)C)[C@@H](C)O)[C@@H](C)O [synthetic polypeptide] (H-GGEQNPIYWARYADWLFTTPLLLLDLALLVDADEGT-OH),orientation of the polypeptide relative to the lipid bilayer (amide region signal),"[1]; acidic pH after addition of 650 nanomoles of hydrogen chloride, sample tilted at 45 degrees",the helix is oriented perpendicular to the plane of the membrane
same,orientation of the polypeptide relative to the lipid bilayer (amide region signal),"[1]; pH 9.2, sample tilted at 45 degrees",very little protein orientation
same,pH of transition in the environment of the tryptophan chromophore (insertion of the polypeptide into the membrane),[2],~6.0 pH
